These are yes or no findings as the source states them, for the method shown. For some of these results: In cells and extracts the contact can be indirect. For some of these results: Binding can be weak; no strength is given. For some of these results: Where a sequence is shown, tags or fusion partners need not be part of it.
Assays:
[1] = target: T1, C-terminally Flag-tagged mouse RNase L, wild type (RNase L-Flag) (mouse) (UniProt Q05921); assay: cross-linking; lysates of 293T cells overexpressing RNase L-Flag with or without L* (HEPES 20 mM pH 7.5, NaCl 100 mM, NP40 0.5%, EDTA 2 mM); 2-5A added (0.25 to 8 μM ATP equivalent), 10 min at 37°C; 5 mM DSS for 30 min; anti-Flag immunoblot of monomers, dimers and oligomers
T1 sequence: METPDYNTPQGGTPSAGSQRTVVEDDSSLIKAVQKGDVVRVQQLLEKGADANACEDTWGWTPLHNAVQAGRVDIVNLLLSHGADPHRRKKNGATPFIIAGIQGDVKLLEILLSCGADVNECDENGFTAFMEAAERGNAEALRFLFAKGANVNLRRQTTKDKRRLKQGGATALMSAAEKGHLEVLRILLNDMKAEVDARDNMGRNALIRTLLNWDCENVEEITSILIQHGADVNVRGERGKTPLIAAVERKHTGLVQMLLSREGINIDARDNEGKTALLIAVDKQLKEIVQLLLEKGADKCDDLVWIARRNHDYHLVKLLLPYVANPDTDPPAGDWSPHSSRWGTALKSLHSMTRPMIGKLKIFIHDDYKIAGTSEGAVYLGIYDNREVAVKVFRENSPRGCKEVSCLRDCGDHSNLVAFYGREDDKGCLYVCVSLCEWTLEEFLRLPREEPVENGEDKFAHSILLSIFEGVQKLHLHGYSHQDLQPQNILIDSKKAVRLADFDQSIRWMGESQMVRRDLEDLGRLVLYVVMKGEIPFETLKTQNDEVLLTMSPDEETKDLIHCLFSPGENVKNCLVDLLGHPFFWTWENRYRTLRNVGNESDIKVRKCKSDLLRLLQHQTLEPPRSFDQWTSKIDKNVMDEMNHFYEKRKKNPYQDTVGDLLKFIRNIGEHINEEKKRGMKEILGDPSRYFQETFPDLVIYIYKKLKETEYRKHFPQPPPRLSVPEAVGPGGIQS

[2] = target: HA-tagged L* protein of the rat TMEV strain RTV-1 (HA-L*_(RTV-1)) (rat TMEV strain RTV-1); assay: co-IP; Flag-tagged RNase L constructs and N-terminally HA-tagged L* co-expressed in 293T cells; HA-L* immunoprecipitated from lysates with anti-HA antibody and protein A/G magnetic beads; immunoblot with anti-Flag and anti-HA
[3] = target: HA-tagged L* protein of TMEV strain DA (HA-L*DA) (Theiler's murine encephalomyelitis virus, strain DA); assay: as above
[4] = target: (His)6-L* (purified recombinant L*DA) (Theiler's murine encephalomyelitis virus, strain DA); assay: SPR; Biacore 3000; (His)6-L* immobilized on Ni-NTA chips, mouse or human RNase L injected; 10 μl/min, 3 min association, 5 min dissociation; 1:1 Langmuir model, global fitting; both purified

For “L* as overexpressed with RNase L-Flag in the dimerization assay (Theiler's murine encephalomyelitis virus)”, the binding [1] was “binds”.

B1: Flag-MuRNase L—R80, Y81 (enzyme, UniProt Q05921 1-735)
chain: METPDYNTPQGGTPSAGSQRTVVEDDSSLIKAVQKGDVVRVQQLLEKGADANACEDTWGWTPLHNAVQAGRVDIVNLLLRYGADPHRRKKNGATPFIIAGIQGDVKLLEILLSCGADVNECDENGFTAFMEAAERGNAEALRFLFAKGANVNLRRQTTKDKRRLKQGGATALMSAAEKGHLEVLRILLNDMKAEVDARDNMGRNALIRTLLNWDCENVEEITSILIQHGADVNVRGERGKTPLIAAVERKHTGLVQMLLSREGINIDARDNEGKTALLIAVDKQLKEIVQLLLEKGADKCDDLVWIARRNHDYHLVKLLLPYVANPDTDPPAGDWSPHSSRWGTALKSLHSMTRPMIGKLKIFIHDDYKIAGTSEGAVYLGIYDNREVAVKVFRENSPRGCKEVSCLRDCGDHSNLVAFYGREDDKGCLYVCVSLCEWTLEEFLRLPREEPVENGEDKFAHSILLSIFEGVQKLHLHGYSHQDLQPQNILIDSKKAVRLADFDQSIRWMGESQMVRRDLEDLGRLVLYVVMKGEIPFETLKTQNDEVLLTMSPDEETKDLIHCLFSPGENVKNCLVDLLGHPFFWTWENRYRTLRNVGNESDIKVRKCKSDLLRLLQHQTLEPPRSFDQWTSKIDKNVMDEMNHFYEKRKKNPYQDTVGDLLKFIRNIGEHINEEKKRGMKEILGDPSRYFQETFPDLVIYIYKKLKETEYRKHFPQPPPRLSVPEAVGPGGIQS
With B1 the binding [2] was “binds”.

B2: Flag-tagged mouse RNase L, wild type (Flag-MuRNase L WT) (enzyme, UniProt Q05921 1-735)
chain: METPDYNTPQGGTPSAGSQRTVVEDDSSLIKAVQKGDVVRVQQLLEKGADANACEDTWGWTPLHNAVQAGRVDIVNLLLSHGADPHRRKKNGATPFIIAGIQGDVKLLEILLSCGADVNECDENGFTAFMEAAERGNAEALRFLFAKGANVNLRRQTTKDKRRLKQGGATALMSAAEKGHLEVLRILLNDMKAEVDARDNMGRNALIRTLLNWDCENVEEITSILIQHGADVNVRGERGKTPLIAAVERKHTGLVQMLLSREGINIDARDNEGKTALLIAVDKQLKEIVQLLLEKGADKCDDLVWIARRNHDYHLVKLLLPYVANPDTDPPAGDWSPHSSRWGTALKSLHSMTRPMIGKLKIFIHDDYKIAGTSEGAVYLGIYDNREVAVKVFRENSPRGCKEVSCLRDCGDHSNLVAFYGREDDKGCLYVCVSLCEWTLEEFLRLPREEPVENGEDKFAHSILLSIFEGVQKLHLHGYSHQDLQPQNILIDSKKAVRLADFDQSIRWMGESQMVRRDLEDLGRLVLYVVMKGEIPFETLKTQNDEVLLTMSPDEETKDLIHCLFSPGENVKNCLVDLLGHPFFWTWENRYRTLRNVGNESDIKVRKCKSDLLRLLQHQTLEPPRSFDQWTSKIDKNVMDEMNHFYEKRKKNPYQDTVGDLLKFIRNIGEHINEEKKRGMKEILGDPSRYFQETFPDLVIYIYKKLKETEYRKHFPQPPPRLSVPEAVGPGGIQS
With B2 the binding [3] was “binds”.

B3: Flag-HuRNase L—mouse 1–58 (enzyme, UniProt Q05921 1-58; Q05823 59-741)
chain: METPDYNTPQGGTPSAGSQRTVVEDDSSLIKAVQKGDVVRVQQLLEKGADANACEDTWGWTPLHNAVQMSREDIVELLLRHGADPVLRKKNGATPFILAAIAGSVKLLKLFLSKGADVNECDFYGFTAFMEAAVYGKVKALKFLYKRGANVNLRRKTKEDQERLRKGGATALMDAAEKGHVEVLKILLDEMGADVNACDNMGRNALIHALLSSDDSDVEAITHLLLDHGADVNVRGERGKTPLILAVEKKHLGLVQRLLEQEHIEINDTDSDGKTALLLAVELKLKKIAELLCKRGASTDCGDLVMTARRNYDHSLVKVLLSHGAKEDFHPPAEDWKPQSSHWGAALKDLHRIYRPMIGKLKFFIDEKYKIADTSEGGIYLGFYEKQEVAVKTFCEGSPRAQREVSCLQSSRENSHLVTFYGSESHRGHLFVCVTLCEQTLEACLDVHRGEDVENEEDEFARNVLSSIFKAVQELHLSCGYTHQDLQPQNILIDSKKAAHLADFDKSIKWAGDPQEVKRDLEDLGRLVLYVVKKGSISFEDLKAQSNEEVVQLSPDEETKDLIHRLFHPGEHVRDCLSDLLGHPFFWTWESRYRTLRNVGNESDIKTRKSESEILRLLQPGPSEHSKSFDKWTTKINECVMKKMNKFYEKRGNFYQNTVGDLLKFIRNLGEHIDEEKHKKMKLKIGDPSLYFQKTFPDLVIYVYTKLQNTEYRKHFPQTHSPNKPQCDGAGGASGLASPGC
With B3 the binding [3] was “binds”.

B4: Flag-HuRNase L—mouse 26–51 (enzyme, UniProt Q05823 1-25; Q05921 26-51; Q05823 52-741)
chain: MESRDHNNPQEGPTSSSGRRAAVEDDSSLIKAVQKGDVVRVQQLLEKGADANFQEEEGGWTPLHNAVQMSREDIVELLLRHGADPVLRKKNGATPFILAAIAGSVKLLKLFLSKGADVNECDFYGFTAFMEAAVYGKVKALKFLYKRGANVNLRRKTKEDQERLRKGGATALMDAAEKGHVEVLKILLDEMGADVNACDNMGRNALIHALLSSDDSDVEAITHLLLDHGADVNVRGERGKTPLILAVEKKHLGLVQRLLEQEHIEINDTDSDGKTALLLAVELKLKKIAELLCKRGASTDCGDLVMTARRNYDHSLVKVLLSHGAKEDFHPPAEDWKPQSSHWGAALKDLHRIYRPMIGKLKFFIDEKYKIADTSEGGIYLGFYEKQEVAVKTFCEGSPRAQREVSCLQSSRENSHLVTFYGSESHRGHLFVCVTLCEQTLEACLDVHRGEDVENEEDEFARNVLSSIFKAVQELHLSCGYTHQDLQPQNILIDSKKAAHLADFDKSIKWAGDPQEVKRDLEDLGRLVLYVVKKGSISFEDLKAQSNEEVVQLSPDEETKDLIHRLFHPGEHVRDCLSDLLGHPFFWTWESRYRTLRNVGNESDIKTRKSESEILRLLQPGPSEHSKSFDKWTTKINECVMKKMNKFYEKRGNFYQNTVGDLLKFIRNLGEHIDEEKHKKMKLKIGDPSLYFQKTFPDLVIYVYTKLQNTEYRKHFPQTHSPNKPQCDGAGGASGLASPGC
In the case of B4, the binding [3] is reported as “binds”.

B5: purified recombinant human RNase L (enzyme, UniProt Q05823 21-719)
chain: AAVEDNHLLIKAVQNEDVDLVQQLLEGGANVNFQEEEGGWTPLHNAVQMSREDIVELLLRHGADPVLRKKNGATPFILAAIAGSVKLLKLFLSKGADVNECDFYGFTAFMEAAVYGKVKALKFLYKRGANVNLRRKTKEDQERLRKGGATALMDAAEKGHVEVLKILLDEMGADVNACDNMGRNALIHALLSSDDSDVEAITHLLLDHGADVNVRGERGKTPLILAVEKKHLGLVQRLLEQEHIEINDTDSDGKTALLLAVELKLKKIAELLCKRGASTDCGDLVMTARRNYDHSLVKVLLSHGAKEDFHPPAEDWKPQSSHWGAALKDLHRIYRPMIGKLKFFIDEKYKIADTSEGGIYLGFYEKQEVAVKTFCEGSPRAQREVSCLQSSRENSHLVTFYGSESHRGHLFVCVTLCEQTLEACLDVHRGEDVENEEDEFARNVLSSIFKAVQELHLSCGYTHQDLQPQNILIDSKKAAHLADFDKSIKWAGDPQEVKRDLEDLGRLVLYVVKKGSISFEDLKAQSNEEVVQLSPDEETKDLIHRLFHPGEHVRDCLSDLLGHPFFWTWESRYRTLRNVGNESDIKTRKSESEILRLLQPGPSEHSKSFDKWTTKINECVMKKMNKFYEKRGNFYQNTVGDLLKFIRNLGEHIDEEKHKKMKLKIGDPSLYFQKTFPDLVIYVYTKLQNTEYRKHFPQT
B5 was tested, and the binding [4] was “no binding”.

B6: Flag-MuRNase L—human 1–58 (enzyme, UniProt Q05823 1-58; Q05921 59-735)
chain: MESRDHNNPQEGPTSSSGRRAAVEDNHLLIKAVQNEDVDLVQQLLEGGANVNFQEEEGGWTPLHNAVQAGRVDIVNLLLSHGADPHRRKKNGATPFIIAGIQGDVKLLEILLSCGADVNECDENGFTAFMEAAERGNAEALRFLFAKGANVNLRRQTTKDKRRLKQGGATALMSAAEKGHLEVLRILLNDMKAEVDARDNMGRNALIRTLLNWDCENVEEITSILIQHGADVNVRGERGKTPLIAAVERKHTGLVQMLLSREGINIDARDNEGKTALLIAVDKQLKEIVQLLLEKGADKCDDLVWIARRNHDYHLVKLLLPYVANPDTDPPAGDWSPHSSRWGTALKSLHSMTRPMIGKLKIFIHDDYKIAGTSEGAVYLGIYDNREVAVKVFRENSPRGCKEVSCLRDCGDHSNLVAFYGREDDKGCLYVCVSLCEWTLEEFLRLPREEPVENGEDKFAHSILLSIFEGVQKLHLHGYSHQDLQPQNILIDSKKAVRLADFDQSIRWMGESQMVRRDLEDLGRLVLYVVMKGEIPFETLKTQNDEVLLTMSPDEETKDLIHCLFSPGENVKNCLVDLLGHPFFWTWENRYRTLRNVGNESDIKVRKCKSDLLRLLQHQTLEPPRSFDQWTSKIDKNVMDEMNHFYEKRKKNPYQDTVGDLLKFIRNIGEHINEEKKRGMKEILGDPSRYFQETFPDLVIYIYKKLKETEYRKHFPQPPPRLSVPEAVGPGGIQS
In the case of B6, the binding [3] is reported as “no binding”.

Source: publication PMC5927464 (2018)
